Measurements published in patent US20190300616A1.
No constants are given. Whether binding was seen depends on the method and setting. Some binding calls cover weakened binding; strength is not graded here.

The chains behind the UniProt entries cited, without tags or fusion partners. Residues count along the entry.
UniProt P35225, residues 35-146: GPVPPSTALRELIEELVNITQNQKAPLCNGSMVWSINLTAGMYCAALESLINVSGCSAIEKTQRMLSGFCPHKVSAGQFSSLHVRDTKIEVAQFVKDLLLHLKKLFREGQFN

What was measured:
[1] = molecular target: recombinant human IL13Rα2hFc chimera (human) (UniProt Q14627); experiment: competitive plate ELISA, rhIL-13 at 10 ng/ml on plate-bound rhIL13Rα2hFc, detection with a human IL-13 ELISA kit
[2] = molecular target: T1, Pngase F-treated rhIL13Rα2hFc (human) (UniProt Q14627); experiment: plate-bound ELISA, Pngase F-treated rhIL13Rα2hFc
T1 sequence (N-linked glycosylation removed with Pngase F under native conditions, looked up): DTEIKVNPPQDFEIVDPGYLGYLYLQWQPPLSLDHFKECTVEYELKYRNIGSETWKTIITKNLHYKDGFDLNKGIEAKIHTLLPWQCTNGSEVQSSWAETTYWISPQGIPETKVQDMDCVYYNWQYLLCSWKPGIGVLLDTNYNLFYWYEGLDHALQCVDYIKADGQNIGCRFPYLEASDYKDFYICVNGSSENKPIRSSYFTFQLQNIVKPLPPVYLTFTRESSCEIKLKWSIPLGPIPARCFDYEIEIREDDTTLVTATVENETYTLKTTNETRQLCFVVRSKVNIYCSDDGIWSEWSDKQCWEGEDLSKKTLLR

[3] = molecular target: T1, Pngase F-treated rhIL13Rα2hFc (human); experiment: plate-bound ELISA, rhIL13Rα2 coated at 1 µg/ml, treated with Pngase F in native buffer

Measured: binding

recombinant human IL-13 (from UniProt P35225 35-146) (ligand)
binds: [1] | [2] | [3]
